Measured values: patent publication US20230110223A1, “ECHOGENIC COMPOSITIONS AND METHODS OF USE THEREOF FOR THE TREATMENT OF PAIN” (InSitu Biologics, Inc., priority 2021, published 2023)

Tested on: deceased-porcine (butchered ham and liver) model
Test: Ultrasound echogenicity and tissue extravasation after injection into deceased-porcine tissue
Conditions: injection at approximately 2.5 cm depth, room-temperature deceased-porcine tissue
Experimental: In this study, the ultrasonographic characteristics of INSB200 were tested and the results compared the results of commonly used aqueous phase local anesthetic preparations.
In a room-temperature deceased-porcine (butchered ham and liver) model, we sequentially injected commonly used local anesthetics: Ropivacaine (0.5%), bupivacaine (0.5%), and liposomal bupivacaine (Exparel). In addition, we injected two different preparations of hydrogel-lipid-microparticle matrix ropivacaine (27 mg/mL and 38 mg/mL). The medicant was deposited into the test medium via 21 gauge - 50 mm needle at approximately 2.5 cm depth for each sample and performed under ultrasound guidance (Sonosite PX and 15-4 MHz probe). Pre and post injection images (FIGS. 1A-2B) were collected for each preparation and evaluated for sample echogenicity and tissue extravasation.

CCCCN1CCCCC1C(=O)Nc1c(C)cccc1C (stereo not shown) [bupivacaine 0.5%, bupivacaine]
sample echogenicity on ultrasound: non-echogenic | tissue extravasation / tissue spread on ultrasound: significant tissue spread

CCCN1CCCC[C@H]1C(=O)Nc1c(C)cccc1C [ropivacaine 0.5%, Ropivacaine]
sample echogenicity on ultrasound: non-echogenic | tissue extravasation / tissue spread on ultrasound: significant tissue spread
